The list shows a part of the results.
target: T1, OsSMF1 (Oryza sativa, UniProt Q6ZLB0 1-436); assay: protein-binding microarray (RPBM); PBS, 2% BSA, 51.3 ng/ul salmon testes DNA, 50 uM zinc acetate, 200 nM TF, 25 C, 1 h; high values mean tight binding; conditions: protein: recombinant; tags: N-terminal polyhistidine and DsRed monomer fusion (pET32a); chain copies: 2; label: CyDye5-dUTP incorporated in the synthesized complementary strand; 3' TTTTT single-stranded linker to array surface; dsDNA, one strand shown
T1 sequence: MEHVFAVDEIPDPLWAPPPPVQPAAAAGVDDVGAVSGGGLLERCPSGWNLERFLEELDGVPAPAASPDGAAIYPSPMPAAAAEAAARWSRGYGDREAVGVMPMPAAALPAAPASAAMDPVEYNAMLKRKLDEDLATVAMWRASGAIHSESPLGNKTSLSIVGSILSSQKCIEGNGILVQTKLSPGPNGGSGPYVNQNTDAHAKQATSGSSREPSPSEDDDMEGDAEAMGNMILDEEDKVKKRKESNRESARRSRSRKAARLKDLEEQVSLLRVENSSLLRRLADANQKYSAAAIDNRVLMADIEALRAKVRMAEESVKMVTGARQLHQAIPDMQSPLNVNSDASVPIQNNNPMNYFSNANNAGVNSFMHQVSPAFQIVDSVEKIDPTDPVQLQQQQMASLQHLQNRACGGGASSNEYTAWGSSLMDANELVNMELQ
Outline: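 The binding signal for each feature is its fluorescence intensity in arbitrary units. An Axon 4000B scanner was used to read a custom Agilent array that had been made double-stranded with Cy5-dUTP primer extension, blocked with 2% BSA, incubated at 25 °C for 1 h with 200 nM protein in PBS, 2% BSA, salmon testes DNA and 50 µM zinc acetate, and washed. The protein was an N-terminal polyhistidine–DsRed transcription factor fusion from E. coli BL21-CodonPlus, purified on Ni–NTA.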

Sequence	binding signal
GCAGTAGTATGTTGTGCGCAGCTATCTTGCGGCTGCACCGCGGAGTCACCTAGTGCAG	3360 fluorescence intensity (a.u.)
TTTATCGGATGTGACGAGGTAACACAATCGTGGCAACGCGCGGAGTCACCTAGTGCAG	5440 fluorescence intensity (a.u.)
CTTCTCCCTTACGTTCCGTTTGCATCATCTGCCTTGCACACGGAGTCACCTAGTGCAG	3240 fluorescence intensity (a.u.)
ATGTATGATGATGATGAAGAAGATGATGGTATCGAATCAACGGAGTCACCTAGTGCAG	30000 fluorescence intensity (a.u.)
ACGCGCCGCGAGCAGGTGACGTCAGCGGCAGCGGCGGCGGCGGAGTCACCTAGTGCAG	10300 fluorescence intensity (a.u.)
CTCATTTATTCACTTGCCACATCAGTTTTCATCCTATGTGCGGAGTCACCTAGTGCAG	6740 fluorescence intensity (a.u.)
GCTCACAAAGTTTGCCAAAGGTTGCCACACCTCATGTTAGCGGAGTCACCTAGTGCAG	3810 fluorescence intensity (a.u.)
TTGATGGATTCACCGGATTGTGCATATTTGCATCGTGGGACGGAGTCACCTAGTGCAG	3200 fluorescence intensity (a.u.)
CCTCACCATCCAACCTCGCCACCTGACGATTCCCCTAAGCCGGAGTCACCTAGTGCAG	3540 fluorescence intensity (a.u.)
ACCTAGAGTCACTGACATGTAGGTCCATACCAGGCCCACACGGAGTCACCTAGTGCAG	4000 fluorescence intensity (a.u.)
AGAAAAGAAAACGCGGCAATAAACAATGACACGGCCTGTCCGGAGTCACCTAGTGCAG	4200 fluorescence intensity (a.u.)
ATGTCGTCGACGACCGCGCGTCGTCGACGCAGAAAGGACCCGGAGTCACCTAGTGCAG	3700 fluorescence intensity (a.u.)
ACCGGTAGACGTGACGTGAGCAATGAGCTTTTCGGCCGTCCGGAGTCACCTAGTGCAG	7540 fluorescence intensity (a.u.)
CACCACAGCCGCCAACGCCATCATCGGCTGCACCCAGGAACGGAGTCACCTAGTGCAG	3290 fluorescence intensity (a.u.)
CCCCTGCAGTGACGCGATCATATGCATGAATGTACGTGCGCGGAGTCACCTAGTGCAG	4420 fluorescence intensity (a.u.)
AGAGATCAATGTTGCGTAACGACAAATTAGTTGTTGACTTCGGAGTCACCTAGTGCAG	4560 fluorescence intensity (a.u.)
GTGCCTCCGCACACGCCATGGCCCAGCAAGGCAGACGATGCGGAGTCACCTAGTGCAG	3960 fluorescence intensity (a.u.)
ATTCATCTAAAAGACCGCAGAGATGGGCCGTGGGCCGTGGCGGAGTCACCTAGTGCAG	3190 fluorescence intensity (a.u.)
GCCAGCCAGCCACCCACAACACACACATCACACTGGCCGTCGGAGTCACCTAGTGCAG	3570 fluorescence intensity (a.u.)
CTCGTACTTTTACCACGCGATACCACTCGTGACGTCACGCCGGAGTCACCTAGTGCAG	11700 fluorescence intensity (a.u.)
CTAATTGAAATCACAAATGCTGAGTTGCTGACATGCACCACGGAGTCACCTAGTGCAG	4570 fluorescence intensity (a.u.)
TCCTGCTGCTCTCCTCCGACCTCCGATCCGCGGCTTGCCACGGAGTCACCTAGTGCAG	3280 fluorescence intensity (a.u.)
GCCGCCCTTCCCTTATGCCGTGTCACCGCCACCGCTGCATCGGAGTCACCTAGTGCAG	13300 fluorescence intensity (a.u.)

A different layout for part of the listing above:
GCCAGCCAGCCACCCACAACACACACATCACACTGGCCGTCGGAGTCACCTAGTGCAG
  binding signal = 3570 fluorescence intensity (a.u.)
CTCGTACTTTTACCACGCGATACCACTCGTGACGTCACGCCGGAGTCACCTAGTGCAG
  binding signal = 11700 fluorescence intensity (a.u.)
